Laboratory results: PubChem BioAssay AID1224828 (NIAID, 2016)
The deposit covers about 17,000 reagents; shown is an unselected part. 762 of them (4.5%) count as active. 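Active calls include both raised and lowered p65 entry, mostly lowered; wells with fewer than 50 cells lack a z-score.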 Raw values are not corrected between plates. Reagents against one gene are numbered here. No sequences are given here.

Test: 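Find genes required for NF-kappaB p65 moving into the nucleus after LPS in mouse macrophages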 (primary screen)
Cell system: mouse RAW264.7 G9 macrophage reporter cells (GFP-p65, Tnf promoter-mCherry)
Reagents: siRNA pool against mouse genes, 100 nM
Duration: 2 days siRNA transfection, then 40 min LPS before fixation
Conditions: LPS (Salmonella minnesota R595) at 10 ng/ml
Read-out: 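Microscopy ratio of nuclear to perinuclear-ring GFP-p65 signal, scaled to the plate median; gene score is the average of two replicate robust z-scores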
Scale: p65 translocation robust z-score: higher = more nuclear NF-kappaB p65 after LPS than the plate median; nuclear/cytoplasmic p65 ratio: higher = more nuclear NF-kappaB p65
Active means: 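Called active when z exceeds 3.3 or falls under -1.56 (median of Tlr4 controls), giving activity score of at least 50; no calls for control wells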
Meaning of the calls: active = hit (p65 shift raised or lowered); inactive = no clear change

| gene knocked down | reagent | p65 translocation robust z-score | nuclear/cytoplasmic p65 ratio, rep 1 | nuclear/cytoplasmic p65 ratio, rep 2 | low cell count flag | activity call |
| --- | --- | --- | --- | --- | --- | --- |
| Plekhg6 | 1 | 0.11 | 1.7 | 1.56 | enough cells to score | inactive |
| Ckmt1 | 1 | -0.09 | 1.68 | 1.37 | enough cells to score | inactive |
| Slc29a1 | 1 | – | 1.3 | 1.17 | fewer than 50 cells per well; well left out of scoring | inactive |
| Sestd1 | 1 | – | 1.37 | 1.36 | fewer than 50 cells per well; well left out of scoring | inactive |
| Trem4 | 1 | 0.92 | 1.58 | 1.57 | enough cells to score | inactive |
| Ngef | 1 | -0.41 | 1.67 | 1.57 | enough cells to score | inactive |
| Acer1 | 1 | -0.44 | 1.52 | 1.46 | enough cells to score | inactive |
| Gbx2 | 1 | 2.07 | 1.71 | 1.64 | enough cells to score | inactive |
| Foxn3 | 1 | 0.11 | 1.69 | 1.58 | enough cells to score | inactive |
| Vtn | 1 | -0.06 | 1.6 | 1.4 | enough cells to score | inactive |
| Mrpl17 | 1 | 0.42 | 1.85 | 1.66 | enough cells to score | inactive |
| Raet1d | 1 | 0.69 | 1.48 | 1.28 | enough cells to score | inactive |
| Trit1 | 1 | 2.39 | 1.75 | 1.45 | enough cells to score | inactive |
| Rfc1 | 1 | -0.58 | 1.48 | 1.39 | enough cells to score | inactive |
| Vmn1r236 | 1 | 3.19 | 1.79 | 1.6 | enough cells to score | inactive |
| Tex15 | 1 | 0.6 | 1.46 | 1.24 | enough cells to score | inactive |
| Ube2f | 1 | -0.3 | 1.24 | 1.54 | enough cells to score | inactive |
| Apol11b | 1 | 1.42 | 1.98 | 1.67 | enough cells to score | inactive |
| Osbpl6 | 1 | 0.61 | 1.43 | 1.31 | enough cells to score | inactive |
| Bmp5 | 1 | 0.41 | 1.66 | 1.69 | enough cells to score | inactive |
| Ubn1 | 1 | -0.34 | 1.4 | 1.52 | enough cells to score | inactive |
| Casp12 | 1 | -2.16 | 1.18 | 1.53 | enough cells to score | active |
| Hoxb1 | 1 | -0.16 | 1.4 | 1.37 | enough cells to score | inactive |
| Trex2 | 1 | 0.95 | 1.66 | 1.62 | enough cells to score | inactive |
| Mtres1 | 1 | – | 1.31 | 1.44 | fewer than 50 cells per well; well left out of scoring | inactive |
| Hoxb5 | 1 | 0 | 1.41 | 1.4 | enough cells to score | inactive |
| Sfrp2 | 1 | -1.29 | 1.35 | 1.39 | enough cells to score | inactive |
| Gabpb2 | 1 | -0.19 | 1.55 | 1.45 | enough cells to score | inactive |
| Sgsm1 | 1 | – | 1.43 | 1.16 | fewer than 50 cells per well; well left out of scoring | inactive |
| Snx9 | 1 | -0.76 | 1.46 | 1.43 | enough cells to score | inactive |
| Il15 | 1 | 0.17 | 1.33 | 1.52 | enough cells to score | inactive |
| Zfp804a | 1 | 1.57 | 1.64 | 1.59 | enough cells to score | inactive |
| Syvn1 | 1 | – | 1.09 | 1.47 | fewer than 50 cells per well; well left out of scoring | inactive |
| Apoc3 | 1 | -0.73 | 1.53 | 1.49 | enough cells to score | inactive |
| Snap25 | 1 | – | 1.6 | 1.18 | fewer than 50 cells per well; well left out of scoring | inactive |
| Or5p5 | 1 | 2.06 | 1.67 | 2.01 | enough cells to score | inactive |
| Rtf2 | 1 | – | 1.26 | 0.91 | fewer than 50 cells per well; well left out of scoring | inactive |
| Rtf2 | 2 | -2.23 | 1.15 | 1.16 | enough cells to score | active |
| Sec61a1 | 1 | – | 1.43 | 1.11 | fewer than 50 cells per well; well left out of scoring | inactive |

Only “nuclear/cytoplasmic p65 ratio, rep 2” (7 entries from above):
Hoxb1 = 1.37
Trex2 = 1.62
Mtres1 = 1.44
Hoxb5 = 1.4
Sfrp2 = 1.39
Gabpb2 = 1.45
Sgsm1 = 1.16

Further reagents follow:
| gene knocked down | reagent | p65 translocation robust z-score | nuclear/cytoplasmic p65 ratio, rep 1 | nuclear/cytoplasmic p65 ratio, rep 2 | low cell count flag | activity call |
| --- | --- | --- | --- | --- | --- | --- |
| Spred2 | 1 | 2.24 | 1.7 | 1.5 | enough cells to score | inactive |
| Aspm | 1 | 0.45 | 1.65 | 1.72 | enough cells to score | inactive |
| Semp2l2a | 1 | -2.32 | 1.1 | 1.34 | enough cells to score | active |
| Gabrd | 1 | 1.5 | 1.63 | 1.57 | enough cells to score | inactive |
| Vegfd | 1 | 0.17 | 1.45 | 1.4 | enough cells to score | inactive |
| Nob1 | 1 | -0.51 | 1.4 | 1.35 | enough cells to score | inactive |
| Zcchc18 | 1 | -1.18 | 1.28 | 1.37 | enough cells to score | inactive |
| Utp23 | 1 | -3.35 | 1.13 | 1.02 | enough cells to score | active |
| Pex16 | 1 | -0.72 | 1.34 | 1.33 | enough cells to score | inactive |
| Nt5c2 | 1 | 0.96 | 1.98 | 1.57 | enough cells to score | inactive |
| Cdc42 | 1 | 0.31 | 1.47 | 1.42 | enough cells to score | inactive |
| Slc28a3 | 1 | -0.54 | 1.35 | 1.2 | enough cells to score | inactive |
| Nrxn3 | 1 | -0.55 | 1.78 | 1.32 | enough cells to score | inactive |
| Fbxl22 | 1 | 0.29 | 1.55 | 1.52 | enough cells to score | inactive |
| Aff1 | 1 | -0.16 | 1.67 | 1.64 | enough cells to score | inactive |
| Rgs5 | 1 | -0.82 | 1.36 | 1.5 | enough cells to score | inactive |
| Slc25a36 | 1 | 0.29 | 1.46 | 1.57 | enough cells to score | inactive |
| Pheta2 | 1 | – | 1.05 | 0 | fewer than 50 cells per well; well left out of scoring | inactive |
| Drg1 | 1 | 1.41 | 1.61 | 1.53 | enough cells to score | inactive |
| Ngf | 1 | 1.5 | 1.58 | 1.67 | enough cells to score | inactive |
